Reference: patent WO2012119989A2 (dated 2012)
No constants are given. Whether binding was seen depends on the method and setting. Some entries that bind do so weakly or less than the wild type.

Assays:
[1] = molecular target: T1, Cell adhesion molecule-1 (CADM1), human, on the cell surface (human) (UniProt Q9BY67); test: flow cytometry with CADM1 siRNA, DU145 cells
T1 sequence (looked up): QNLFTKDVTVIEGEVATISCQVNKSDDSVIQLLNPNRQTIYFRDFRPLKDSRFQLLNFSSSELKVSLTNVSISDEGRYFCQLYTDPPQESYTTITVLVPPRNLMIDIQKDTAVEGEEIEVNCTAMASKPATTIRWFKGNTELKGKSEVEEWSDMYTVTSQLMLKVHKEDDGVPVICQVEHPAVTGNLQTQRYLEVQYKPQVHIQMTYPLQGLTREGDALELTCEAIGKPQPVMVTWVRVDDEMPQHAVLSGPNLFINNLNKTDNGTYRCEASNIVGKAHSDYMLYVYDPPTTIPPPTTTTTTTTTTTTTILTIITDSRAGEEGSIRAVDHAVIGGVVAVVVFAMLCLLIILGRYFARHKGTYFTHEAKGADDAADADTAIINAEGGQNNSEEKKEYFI

[2] = molecular target: T1, Cell adhesion molecule-1 (CADM1), human, on the cell surface (human); test: Hum-ZAP internalization assay on CADM1-expressing cancer cell line
[3] = molecular target: T1, Cell adhesion molecule-1 (CADM1), human, on the cell surface (human); test: flow cytometry, CHO cells transiently transfected with full-length CADM1
[4] = molecular target: T1, Cell adhesion molecule-1 (CADM1), human, on the cell surface (human); test: flow cytometry titration on human cancer cell lines (Table 9, not given)
[5] = molecular target: T1, Cell adhesion molecule-1 (CADM1), human, on the cell surface (human); test: flow cytometry, CHO Clon 139 overexpressing human CADM1, signal reduced by CADM1 siRNA s24325; antibody 10ug/ml

Measured: binding

B1: Antibody-10 (antibody, V domains shown)
VH: EVQLLESGGGLVQPGGSLRLSCAASGFTFSMYTMSWVRQAPGKGLEWVSSIWSSGGKTSYADSVKGRFTISRDNSKNTLYLQMNSLRAEDTAVYYCAKESWYFDLWGRGTL
VL: QYELTQDPAVSVALGQTVRITCQGHSLRSYYATWYQQKPGQAPVLVMYGENNRPSGIPDRFSGSSSGNTASLTITGAQAEDEADYYCNSRDNSGNHLVFGGGTNLTVL
notes: also called AB10; AB 1 0
binds: all assays above

B2: Antibody-3 (antibody, V domains shown)
VH: EVQLLESGGGLVQPGGSLRLSCAASGFTFSRYPMYWVRQAPGKGLEWVSSISSSGGLTHYADSVKGRFTISRDNSKNTLYLQMNSLRAEDTAVYYCARGDWYFDLWGRGTL
VL: QYELTQDPAVSVALGQTVRITCQGDSLRTYYASWYQQRPGQAPVLVIYGDNDRPSGIPDRFSGSTSRNTASLTITGAQAEDEAHYYCNSRDSSGNHIFATGTKVTVL
notes: also called AB3; AB 3
not listed: [2]
binds: all other assays above
